The values that follow come from publication PMC5996148.

Test in all cases: protein microarray (ProtoArray v5.0), streptavidin-Alexa Fluor 647
Details in all cases: 3'-biotin; 20 mM Tris (pH 7.5), 5 mM MgCl2, 100 mM KCl, 0.1% Tween-20, A/T-rich and random oligonucleotide blockers; temperature not stated; high values mean tight binding

The target in one test is T1, CCDC23 (UniProt Q8N300).
T1 sequence: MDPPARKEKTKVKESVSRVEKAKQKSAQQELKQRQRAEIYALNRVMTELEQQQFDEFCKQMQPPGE

A further test concerns CCDC28A (human).
The next test has as its system CCDC32 (human).
For a further test, the system named is CCDC40 (human).
A further test concerns CCDC5 (human).
The subject of the next test is CCDC53 (human).
The next test relates to CCDC75 (human).
Another test concerns CCDC78 (human).
The next test concerns CCDC83 (human).
A further test concerns CCDC91 (human).

This is one part of the list. For some of these results: The exact form of the protein is not confirmed.

For “GGGAGGCTGAGGCAGG [G4-1 biotinylated (PQS2)]”, the binding signal is 3.6 z-score in the test with CCDC23; -0.318 z-score in the test on CCDC28A (human); -0.378 z-score in the test with CCDC32 (human); -0.353 z-score with CCDC40 (human); -0.327 z-score in the test on CCDC5 (human); -0.324 z-score in the test with CCDC53 (human). In addition, the binding signal with CCDC75 (human) was -0.343 z-score; in the test with CCDC78 (human) it was -0.246 z-score; in the test on CCDC83 (human) it was -0.331 z-score; with CCDC91 (human), -0.317 z-score.
